Results: article PMC10448641 (ACS Omega, 2023)

Test system: A549 cells
Test: MTT cytotoxicity assay, lung cancer A549
Type: cell-based
Conditions: Homo sapiens, A549, read-out: IC50 ± SD, Lung cancer (A549)

Question: Which IC50 does the source give for `COc1cccc2c1C(=O)c1c(O)c3c(c(O)c1C2=O)C[C@@](O)(C(=O)CO)C[C@@H]3O[C@H]1C[C@H](N)[C@H](O)[C@H](C)O1` [Doxorubicin] here?
Answer: Its IC50 is 9.44 ± 0.64 µM.
